These are yes or no findings as the source states them, for the method shown. Binding can be weak; no strength is given. Where a sequence is shown, tags or fusion partners need not be part of it.
Target: T1, B. subtilis CdaA catalytic domain (CdaACD), His-tagged (B. subtilis) (UniProt Q45589)
T1 sequence: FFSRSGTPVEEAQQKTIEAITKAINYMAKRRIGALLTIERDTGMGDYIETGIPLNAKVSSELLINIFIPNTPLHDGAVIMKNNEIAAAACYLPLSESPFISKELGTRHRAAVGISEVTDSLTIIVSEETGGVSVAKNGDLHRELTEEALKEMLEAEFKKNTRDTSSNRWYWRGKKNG
Assay: SEC; lysates of the two E. coli strains mixed after the French press step, Ni-NTA affinity chromatography (both proteins His-tagged), then preparative Superdex 200 HiLoad 16/60 in 30 mM Tris pH 7.5, 150 mM NaCl; peak fractions on SDS-PAGE with Coomassie staining

By UniProt entry, the sequences of proteins in these tests, tags left out. Where a name states a change or a piece, a line headed by the entry shows the natural chain unless it says otherwise.
UniProt O34824: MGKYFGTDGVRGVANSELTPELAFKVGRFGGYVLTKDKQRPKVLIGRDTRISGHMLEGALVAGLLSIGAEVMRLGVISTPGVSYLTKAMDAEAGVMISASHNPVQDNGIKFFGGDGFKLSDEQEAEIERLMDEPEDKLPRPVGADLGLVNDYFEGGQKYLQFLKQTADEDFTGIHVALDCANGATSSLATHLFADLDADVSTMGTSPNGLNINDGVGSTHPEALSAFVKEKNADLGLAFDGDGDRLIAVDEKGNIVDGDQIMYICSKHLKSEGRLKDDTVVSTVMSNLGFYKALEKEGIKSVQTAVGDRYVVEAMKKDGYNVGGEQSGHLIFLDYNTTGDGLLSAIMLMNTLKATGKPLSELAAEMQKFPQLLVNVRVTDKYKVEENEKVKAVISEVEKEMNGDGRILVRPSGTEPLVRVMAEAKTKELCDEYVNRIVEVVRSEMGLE

B. subtilis GlmM D195A alanine substitution variant, His-tagged (from UniProt O34824) (enzyme)
binding: binds

— article PMC8573169, “Structural basis for the inhibition of the Bacillus subtilis c-di-AMP cyclase CdaA by the phosphoglucomutase GlmM” (The Journal of Biological Chemistry, 2021)
